Compound in the experiment: Cc1cc(ccc1-c1ccccc1)C(=O)N1CCCN(CC1)C(=O)CCl [compound 10]
Kind of experiment: probe-labelled cysteine peptide fold change vs DMSO (competition) (log2 fold change); higher = less target engagement (more negative = stronger competition). The settings on record: THP-1, incubation time: 4 h.

Protein sequences, listed by entry. Tags and fused reporters are not part of them. Lines headed by an entry give the natural chain unless they say otherwise; changes in a name come on top.
UniProt Q5M775: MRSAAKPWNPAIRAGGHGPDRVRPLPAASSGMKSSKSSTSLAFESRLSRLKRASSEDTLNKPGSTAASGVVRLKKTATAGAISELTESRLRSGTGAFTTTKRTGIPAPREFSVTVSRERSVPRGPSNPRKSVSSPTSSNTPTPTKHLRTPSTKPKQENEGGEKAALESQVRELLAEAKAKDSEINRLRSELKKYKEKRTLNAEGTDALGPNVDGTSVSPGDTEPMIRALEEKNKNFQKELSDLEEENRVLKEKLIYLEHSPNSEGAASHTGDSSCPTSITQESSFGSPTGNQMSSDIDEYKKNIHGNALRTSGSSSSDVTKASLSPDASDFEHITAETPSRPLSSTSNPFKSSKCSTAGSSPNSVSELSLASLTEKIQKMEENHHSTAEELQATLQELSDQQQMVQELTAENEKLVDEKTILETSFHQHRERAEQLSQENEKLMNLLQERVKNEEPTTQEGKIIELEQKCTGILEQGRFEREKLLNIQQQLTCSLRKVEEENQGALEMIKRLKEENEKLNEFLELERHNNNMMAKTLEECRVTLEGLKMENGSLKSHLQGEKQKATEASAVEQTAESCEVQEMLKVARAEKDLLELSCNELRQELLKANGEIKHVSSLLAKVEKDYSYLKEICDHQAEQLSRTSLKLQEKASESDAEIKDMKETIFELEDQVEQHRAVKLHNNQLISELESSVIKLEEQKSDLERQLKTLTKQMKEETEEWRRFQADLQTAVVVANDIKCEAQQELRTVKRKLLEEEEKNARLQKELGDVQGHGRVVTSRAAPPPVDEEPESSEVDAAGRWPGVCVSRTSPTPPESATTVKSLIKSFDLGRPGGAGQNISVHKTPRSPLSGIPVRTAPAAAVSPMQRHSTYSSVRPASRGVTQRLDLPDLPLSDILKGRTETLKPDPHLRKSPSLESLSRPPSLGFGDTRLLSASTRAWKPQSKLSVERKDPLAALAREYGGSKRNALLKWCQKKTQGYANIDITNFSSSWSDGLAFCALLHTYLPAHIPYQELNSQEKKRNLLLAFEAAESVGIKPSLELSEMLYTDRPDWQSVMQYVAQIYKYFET
UniProt Q8NB90: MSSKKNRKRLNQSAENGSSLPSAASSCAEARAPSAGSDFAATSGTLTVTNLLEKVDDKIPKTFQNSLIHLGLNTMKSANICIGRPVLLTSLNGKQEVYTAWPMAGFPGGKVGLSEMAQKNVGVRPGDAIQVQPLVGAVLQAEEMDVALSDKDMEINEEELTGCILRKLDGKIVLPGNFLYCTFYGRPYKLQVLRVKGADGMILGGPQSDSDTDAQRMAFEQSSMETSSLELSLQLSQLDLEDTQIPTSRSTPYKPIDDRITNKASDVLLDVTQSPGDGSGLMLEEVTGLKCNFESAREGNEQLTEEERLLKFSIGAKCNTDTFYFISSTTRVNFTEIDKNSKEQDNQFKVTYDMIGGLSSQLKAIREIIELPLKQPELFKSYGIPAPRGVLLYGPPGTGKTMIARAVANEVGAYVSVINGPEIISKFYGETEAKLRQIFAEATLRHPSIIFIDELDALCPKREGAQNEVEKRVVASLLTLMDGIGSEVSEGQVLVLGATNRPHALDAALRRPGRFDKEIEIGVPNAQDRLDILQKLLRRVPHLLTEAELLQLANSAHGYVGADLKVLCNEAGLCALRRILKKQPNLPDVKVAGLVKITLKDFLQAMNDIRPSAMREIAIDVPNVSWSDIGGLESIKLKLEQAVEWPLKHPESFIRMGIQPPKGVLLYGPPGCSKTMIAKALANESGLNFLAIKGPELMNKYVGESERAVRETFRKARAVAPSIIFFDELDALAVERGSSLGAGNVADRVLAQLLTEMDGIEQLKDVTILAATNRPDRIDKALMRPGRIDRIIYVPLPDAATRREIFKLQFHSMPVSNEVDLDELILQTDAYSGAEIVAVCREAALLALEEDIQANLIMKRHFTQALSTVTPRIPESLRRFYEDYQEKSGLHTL
UniProt O76094: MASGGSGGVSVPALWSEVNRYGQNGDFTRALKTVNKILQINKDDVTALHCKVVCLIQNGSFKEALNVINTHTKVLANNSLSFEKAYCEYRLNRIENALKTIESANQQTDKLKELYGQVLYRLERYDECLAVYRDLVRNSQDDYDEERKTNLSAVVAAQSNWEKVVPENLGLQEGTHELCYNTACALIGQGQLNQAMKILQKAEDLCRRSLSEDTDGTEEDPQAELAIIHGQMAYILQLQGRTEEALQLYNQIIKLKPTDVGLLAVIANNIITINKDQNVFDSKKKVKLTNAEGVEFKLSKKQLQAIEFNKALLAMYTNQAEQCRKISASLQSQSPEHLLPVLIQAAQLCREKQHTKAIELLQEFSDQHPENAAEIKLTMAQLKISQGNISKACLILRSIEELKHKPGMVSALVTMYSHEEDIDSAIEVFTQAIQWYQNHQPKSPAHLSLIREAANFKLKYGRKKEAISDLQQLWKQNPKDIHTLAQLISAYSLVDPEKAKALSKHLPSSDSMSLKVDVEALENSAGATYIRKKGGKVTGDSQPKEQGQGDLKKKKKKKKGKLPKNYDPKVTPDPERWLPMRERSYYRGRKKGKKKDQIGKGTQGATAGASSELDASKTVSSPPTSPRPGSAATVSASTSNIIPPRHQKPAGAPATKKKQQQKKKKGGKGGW
UniProt O15269: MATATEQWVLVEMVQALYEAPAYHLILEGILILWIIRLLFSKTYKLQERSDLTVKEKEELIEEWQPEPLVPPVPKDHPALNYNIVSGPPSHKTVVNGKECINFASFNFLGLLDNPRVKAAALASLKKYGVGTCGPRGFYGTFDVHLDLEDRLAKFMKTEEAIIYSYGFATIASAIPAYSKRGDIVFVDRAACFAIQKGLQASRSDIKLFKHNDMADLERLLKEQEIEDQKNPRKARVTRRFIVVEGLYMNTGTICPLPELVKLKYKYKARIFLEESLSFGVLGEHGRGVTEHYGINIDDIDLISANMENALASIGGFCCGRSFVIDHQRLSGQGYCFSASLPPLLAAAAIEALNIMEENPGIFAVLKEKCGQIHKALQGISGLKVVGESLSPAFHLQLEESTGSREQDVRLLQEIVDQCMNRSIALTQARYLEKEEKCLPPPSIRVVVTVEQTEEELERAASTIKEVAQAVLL
UniProt Q5T280: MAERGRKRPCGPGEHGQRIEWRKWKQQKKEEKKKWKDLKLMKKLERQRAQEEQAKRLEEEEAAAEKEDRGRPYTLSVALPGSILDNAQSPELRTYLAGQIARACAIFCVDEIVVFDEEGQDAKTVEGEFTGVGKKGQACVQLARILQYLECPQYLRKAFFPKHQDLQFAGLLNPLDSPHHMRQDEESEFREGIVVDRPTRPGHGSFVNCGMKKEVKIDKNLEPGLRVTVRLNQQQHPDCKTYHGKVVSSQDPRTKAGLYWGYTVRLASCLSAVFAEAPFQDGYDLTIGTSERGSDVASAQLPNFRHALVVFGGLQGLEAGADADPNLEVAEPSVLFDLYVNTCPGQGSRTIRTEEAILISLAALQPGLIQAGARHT
UniProt O75391: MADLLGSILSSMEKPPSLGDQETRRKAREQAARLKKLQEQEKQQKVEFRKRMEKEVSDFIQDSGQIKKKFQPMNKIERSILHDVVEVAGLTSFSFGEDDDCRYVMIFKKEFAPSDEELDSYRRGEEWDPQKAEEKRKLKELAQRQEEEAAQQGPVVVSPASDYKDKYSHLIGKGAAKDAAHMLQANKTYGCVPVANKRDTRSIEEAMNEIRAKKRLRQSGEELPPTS
UniProt P08240: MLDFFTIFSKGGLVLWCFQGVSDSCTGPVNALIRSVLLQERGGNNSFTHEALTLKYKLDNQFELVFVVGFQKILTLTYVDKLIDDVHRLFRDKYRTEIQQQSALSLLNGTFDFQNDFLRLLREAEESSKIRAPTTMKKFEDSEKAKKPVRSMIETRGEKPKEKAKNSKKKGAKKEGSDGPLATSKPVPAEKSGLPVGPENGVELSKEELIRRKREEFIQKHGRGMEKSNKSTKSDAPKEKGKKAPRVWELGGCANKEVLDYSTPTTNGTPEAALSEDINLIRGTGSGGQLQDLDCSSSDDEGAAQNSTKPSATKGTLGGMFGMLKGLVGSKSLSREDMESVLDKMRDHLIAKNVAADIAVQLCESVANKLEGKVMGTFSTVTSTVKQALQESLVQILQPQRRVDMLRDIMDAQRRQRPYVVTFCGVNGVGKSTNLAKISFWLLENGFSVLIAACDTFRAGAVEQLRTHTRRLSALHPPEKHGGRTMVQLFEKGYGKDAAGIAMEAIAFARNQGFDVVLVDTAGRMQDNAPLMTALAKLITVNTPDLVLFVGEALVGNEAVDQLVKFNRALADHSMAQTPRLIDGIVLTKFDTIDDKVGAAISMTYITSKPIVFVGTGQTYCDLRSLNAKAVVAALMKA
UniProt Q92673: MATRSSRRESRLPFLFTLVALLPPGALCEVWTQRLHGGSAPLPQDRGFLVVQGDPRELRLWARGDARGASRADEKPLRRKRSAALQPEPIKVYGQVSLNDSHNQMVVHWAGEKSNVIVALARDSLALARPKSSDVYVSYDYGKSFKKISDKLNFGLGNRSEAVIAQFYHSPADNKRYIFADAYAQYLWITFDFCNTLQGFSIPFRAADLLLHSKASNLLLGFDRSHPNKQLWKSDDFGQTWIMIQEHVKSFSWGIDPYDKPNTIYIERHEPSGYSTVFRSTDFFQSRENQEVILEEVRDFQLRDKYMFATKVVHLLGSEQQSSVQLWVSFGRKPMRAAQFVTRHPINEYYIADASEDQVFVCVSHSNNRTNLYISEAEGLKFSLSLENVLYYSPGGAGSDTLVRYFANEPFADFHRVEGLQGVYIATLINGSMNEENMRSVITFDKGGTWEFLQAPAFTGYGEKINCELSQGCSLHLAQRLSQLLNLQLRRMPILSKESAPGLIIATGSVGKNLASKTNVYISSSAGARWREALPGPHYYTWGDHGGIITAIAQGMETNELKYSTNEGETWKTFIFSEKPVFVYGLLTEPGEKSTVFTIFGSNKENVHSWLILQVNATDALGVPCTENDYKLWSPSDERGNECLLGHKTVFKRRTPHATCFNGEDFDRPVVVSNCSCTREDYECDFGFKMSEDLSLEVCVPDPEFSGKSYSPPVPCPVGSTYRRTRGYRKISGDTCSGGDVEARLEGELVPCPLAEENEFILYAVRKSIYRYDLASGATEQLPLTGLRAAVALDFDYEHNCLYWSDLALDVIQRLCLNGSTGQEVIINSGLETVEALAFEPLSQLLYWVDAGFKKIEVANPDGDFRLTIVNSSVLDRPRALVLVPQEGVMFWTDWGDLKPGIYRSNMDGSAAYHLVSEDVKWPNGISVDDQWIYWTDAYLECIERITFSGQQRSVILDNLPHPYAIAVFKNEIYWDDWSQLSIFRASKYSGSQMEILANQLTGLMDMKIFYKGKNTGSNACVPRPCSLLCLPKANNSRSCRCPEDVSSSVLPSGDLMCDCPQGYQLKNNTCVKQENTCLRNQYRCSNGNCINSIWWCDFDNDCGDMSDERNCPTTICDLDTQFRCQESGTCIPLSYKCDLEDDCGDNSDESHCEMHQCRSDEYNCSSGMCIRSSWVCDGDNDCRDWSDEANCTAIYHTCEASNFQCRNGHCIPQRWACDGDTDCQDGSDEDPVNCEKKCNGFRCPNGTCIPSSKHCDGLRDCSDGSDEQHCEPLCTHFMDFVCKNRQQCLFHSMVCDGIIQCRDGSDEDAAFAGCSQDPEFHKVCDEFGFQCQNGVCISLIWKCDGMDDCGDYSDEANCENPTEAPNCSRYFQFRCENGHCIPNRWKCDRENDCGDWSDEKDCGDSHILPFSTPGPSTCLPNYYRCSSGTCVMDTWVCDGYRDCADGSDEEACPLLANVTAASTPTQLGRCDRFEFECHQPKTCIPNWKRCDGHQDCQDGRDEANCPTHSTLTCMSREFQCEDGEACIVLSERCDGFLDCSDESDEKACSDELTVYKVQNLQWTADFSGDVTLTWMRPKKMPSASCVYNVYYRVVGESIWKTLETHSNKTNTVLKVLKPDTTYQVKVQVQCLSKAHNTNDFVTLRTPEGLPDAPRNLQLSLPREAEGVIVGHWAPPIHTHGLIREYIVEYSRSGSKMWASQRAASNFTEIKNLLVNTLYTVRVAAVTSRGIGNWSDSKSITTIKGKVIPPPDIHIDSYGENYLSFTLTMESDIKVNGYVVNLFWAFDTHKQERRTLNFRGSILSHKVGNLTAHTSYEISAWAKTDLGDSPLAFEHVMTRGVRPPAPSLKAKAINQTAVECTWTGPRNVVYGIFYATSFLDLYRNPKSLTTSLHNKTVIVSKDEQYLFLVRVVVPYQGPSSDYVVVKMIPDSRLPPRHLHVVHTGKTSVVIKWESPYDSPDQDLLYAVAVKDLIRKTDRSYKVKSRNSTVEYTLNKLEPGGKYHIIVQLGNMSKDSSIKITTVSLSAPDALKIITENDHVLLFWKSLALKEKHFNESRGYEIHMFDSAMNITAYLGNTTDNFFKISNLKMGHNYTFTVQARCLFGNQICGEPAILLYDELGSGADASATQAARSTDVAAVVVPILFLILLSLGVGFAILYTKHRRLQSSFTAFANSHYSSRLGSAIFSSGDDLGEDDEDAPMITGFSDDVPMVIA

The other results are listed elsewhere or left out.
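Also: competitive profiling in live THP-1 cells: cysteine peptides tagged with an iodoacetamide desthiobiotin (IA-DTB) probe, intensity after compound treatment relative to DMSO-treated cells.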

For “SNX12_Q9UMY4_141_CLHMFLQEEAIDR (UniProt Q9UMY4)”, the “probe-labelled cysteine peptide fold change” value runs as follows: (10 µM) 0.0398; (50 µM) 0.0747.
Taken in the same sequence, the figures for “SQOR_Q9Y6N5_379_KYDGYTSCPLVTGYNR (UniProt Q9Y6N5)” were -0.116 and -0.0993.
Taken in the same sequence, the figures for “SPECC1_Q5M775_493_LLNIQQQLTCSLR (UniProt Q5M775)” were -0.0188 and -0.495.
Turning to “SPATA5_Q8NB90_672_GVLLYGPPGCSK (UniProt Q8NB90)”, the “probe-labelled cysteine peptide fold change” value was -0.0625 (10 µM) and -0.17 (50 µM).
The corresponding values for “SRP72_O76094_323_ALLAMYTNQAEQCRK (UniProt O76094)” are -0.265 and -0.447.
The corresponding values for “SRP72_O76094_349_ISASLQSQSPEHLLPVLIQAAQLCR (UniProt O76094)” are 0.103 and -0.17.
As for “SPTLC1_O15269_133_YGVGTCGPR (UniProt O15269)”, the “probe-labelled cysteine peptide fold change” value by setting is: (10 µM) -0.178; (50 µM) -0.348.
The corresponding values for “SPECC1_Q5M775_633_EICDHQAEQLSR (UniProt Q5M775)” are -0.0408 and 0.112.
In the case of “SOGA1_O94964_499_KADAVLGCSVK (UniProt O94964)”, the “probe-labelled cysteine peptide fold change” value was -0.215 (10 µM) and -0.378 (50 µM).
Taken in the same sequence, the figures for “SOD1_P00441_112_HVGDLGNVTADKDGVADVSIEDSVISLSGDHCIIGR (UniProt P00441)” were -0.102 and -0.454.
Taken in the same sequence, the figures for “SRM_P19623_71_TYGNVLVLDGVIQCTERDEFSYQEMIANLPLCSHPNPR (UniProt P19623)” were 0.225 and 0.323.
The corresponding values for “SPAG1_Q07617_633_EEGNQCVNDK (UniProt Q07617)” are -0.0703 and -0.479.
For “SPTAN1_Q13813_1930_DRVNDVCTNGQDLIK (UniProt Q13813)”, the “probe-labelled cysteine peptide fold change” value worked out at 0.044 (10 µM) and 0.368 (50 µM).
With “SPTLC1_O15269_133_KYGVGTCGPR (UniProt O15269)”, the “probe-labelled cysteine peptide fold change” value by setting is: (10 µM) -0.399; (50 µM) -0.44.
The corresponding values for “SRI_P30626_163_ITFDDYIACCVK (UniProt P30626)” are -0.0625 and 0.000946.
Taken in the same sequence, the figures for “SP110_Q9HB58_327_DDSTCNSTVETR (UniProt Q9HB58)” were -0.102 and -0.0392.
The corresponding values for “SPOUT1_Q5T280_10_KRPCGPGEHGQR (UniProt Q5T280)” are -0.158 and -0.321.
In the case of “SPC25_Q9HBM1_27_STDTSCQMAGLR (UniProt Q9HBM1)”, the “probe-labelled cysteine peptide fold change” value (10 µM) was -0.206 and the “probe-labelled cysteine peptide fold change” value (50 µM) was -0.376.
As for “SPAG7_O75391_101_SILHDVVEVAGLTSFSFGEDDDCR (UniProt O75391)”, the “probe-labelled cysteine peptide fold change” value (10 µM) is -0.0328 and the “probe-labelled cysteine peptide fold change” value (50 µM) was -0.0999.
Taken in the same sequence, the figures for “SNX5_Q9Y5X3_250_NVADDYIHTAACLHSLALEEPTVIK (UniProt Q9Y5X3)” were -0.216 and -0.0124.
The corresponding values for “SPOUT1_Q5T280_239_LNQQQHPDCK (UniProt Q5T280)” are 0.156 and -0.184.
Taken in the same sequence, the figures for “SNU13_P55769_30_LLDLVQQSCNYK (UniProt P55769)” were 0.0842 and 0.135.
Consider “SRP72_O76094_128_YDECLAVYR (UniProt O76094)”, for which the “probe-labelled cysteine peptide fold change” value (10 µM) came out at 0.162 and the “probe-labelled cysteine peptide fold change” value (50 µM) came out at 0.0565.
Consider “SNX1_Q13596_318_LQEVECEEQR (UniProt Q13596)”, for which the “probe-labelled cysteine peptide fold change” value was -0.177 (10 µM) and -0.146 (50 µM).
The corresponding values for “SRPRA_P08240_25_GGLVLWCFQGVSDSCTGPVNALIR (UniProt P08240)” are 0.101 and 0.155.
As to “SOD1_P00441_147_LACGVIGIAQ (UniProt P00441)”, the “probe-labelled cysteine peptide fold change” value was -0.188 (10 µM) and -0.114 (50 µM).
Taken in the same sequence, the figures for “SPAG7_O75391_191_TYGCVPVANKR (UniProt O75391)” were -0.315 and -0.53.
Taken in the same sequence, the figures for “SNX9_Q9Y5X1_427_CTGPLPK (UniProt Q9Y5X1)” were -0.0239 and -0.209.
In the case of “SORL1_Q92673_1158_CDLEDDCGDNSDESHCEMHQCR (UniProt Q92673)”, the “probe-labelled cysteine peptide fold change” value (10 µM) is -0.152 and the “probe-labelled cysteine peptide fold change” value (50 µM) was -0.346.
Taken in the same sequence, the figures for “SPATA5_Q8NB90_459_HPSIIFIDELDALCPK (UniProt Q8NB90)” were -0.207 and -0.0517.
For the target “SNX6_Q9UNH7_347+348_DVLQAETSQQLCCQK (UniProt Q9UNH7)”, the “probe-labelled cysteine peptide fold change” value by setting is: (10 µM) -0.288; (50 µM) -0.619.
The corresponding values for “SPRYD7_Q5W111_150_NMHCPASGIR (UniProt Q5W111)” are 0.0816 and 0.0102.
Taken in the same sequence, the figures for “SPG7_Q9UQ90_353_GALLLGPPGCGK (UniProt Q9UQ90)” were 0.0637 and -0.0291.
Taken in the same sequence, the figures for “SPART_Q8N0X7_562_CIVNNVSAETVQTVR (UniProt Q8N0X7)” were 0.154 and -0.538.
Consider “SREBF2_Q12772_832_AGDQEEESCEFSSALEYLK (UniProt Q12772)”, for which the “probe-labelled cysteine peptide fold change” value was 0.0639 (10 µM) and -0.629 (50 µM).
“SP1_P08047_606_EACTCPYCK (UniProt P08047)”: the “probe-labelled cysteine peptide fold change” value (10 µM) stood at 0.251 and the “probe-labelled cysteine peptide fold change” value (50 µM) was 0.637.
The corresponding values for “SRP68_Q9UHB9_525_CSLQAAAILDANDAHQTETSSSQVK (UniProt Q9UHB9)” are -0.0993 and -0.302.
With “SNX14_Q9Y5W7_732_GQHLEPFIMNFINSCESPKPK (UniProt Q9Y5W7)”, the “probe-labelled cysteine peptide fold change” value is -0.0439 (10 µM) and -0.0904 (50 µM).
The corresponding values for “SP100_P23497_16_LNECISPVANEMNHLPAHSHDLQR (UniProt P23497)” are -0.429 and -0.732.
As to “SORL1_Q92673_643_LWSPSDERGNECLLGHK (UniProt Q92673)”, the “probe-labelled cysteine peptide fold change” value was -0.257 (10 µM) and -0.573 (50 µM).
For the target “SRPRA_P08240_424_QRPYVVTFCGVNGVGK (UniProt P08240)”, the “probe-labelled cysteine peptide fold change” value worked out at 0.0797 (10 µM) and 0.262 (50 µM).
The corresponding values for “SNX29_Q8TEQ0_44_VTCLCAQFEAVLQHGLK (UniProt Q8TEQ0)” are -0.185 and 0.116.

The record behind these values is the supplement of paper PMC12067093, “Discovery and optimisation of a covalent ligand for TRIM25 and its application to targeted protein ubiquitination” (Chemical Science, 2025).
